# These are yes or no findings as the source states them, for the method shown. Binding seen in cells or lysates may run through a third protein. These calls come from enrichment with a bait or labelling near it, and not all partners need be listed.
# Protein sequences, listed by entry. Tags and fused reporters are not part of them.
# UniProt P59923: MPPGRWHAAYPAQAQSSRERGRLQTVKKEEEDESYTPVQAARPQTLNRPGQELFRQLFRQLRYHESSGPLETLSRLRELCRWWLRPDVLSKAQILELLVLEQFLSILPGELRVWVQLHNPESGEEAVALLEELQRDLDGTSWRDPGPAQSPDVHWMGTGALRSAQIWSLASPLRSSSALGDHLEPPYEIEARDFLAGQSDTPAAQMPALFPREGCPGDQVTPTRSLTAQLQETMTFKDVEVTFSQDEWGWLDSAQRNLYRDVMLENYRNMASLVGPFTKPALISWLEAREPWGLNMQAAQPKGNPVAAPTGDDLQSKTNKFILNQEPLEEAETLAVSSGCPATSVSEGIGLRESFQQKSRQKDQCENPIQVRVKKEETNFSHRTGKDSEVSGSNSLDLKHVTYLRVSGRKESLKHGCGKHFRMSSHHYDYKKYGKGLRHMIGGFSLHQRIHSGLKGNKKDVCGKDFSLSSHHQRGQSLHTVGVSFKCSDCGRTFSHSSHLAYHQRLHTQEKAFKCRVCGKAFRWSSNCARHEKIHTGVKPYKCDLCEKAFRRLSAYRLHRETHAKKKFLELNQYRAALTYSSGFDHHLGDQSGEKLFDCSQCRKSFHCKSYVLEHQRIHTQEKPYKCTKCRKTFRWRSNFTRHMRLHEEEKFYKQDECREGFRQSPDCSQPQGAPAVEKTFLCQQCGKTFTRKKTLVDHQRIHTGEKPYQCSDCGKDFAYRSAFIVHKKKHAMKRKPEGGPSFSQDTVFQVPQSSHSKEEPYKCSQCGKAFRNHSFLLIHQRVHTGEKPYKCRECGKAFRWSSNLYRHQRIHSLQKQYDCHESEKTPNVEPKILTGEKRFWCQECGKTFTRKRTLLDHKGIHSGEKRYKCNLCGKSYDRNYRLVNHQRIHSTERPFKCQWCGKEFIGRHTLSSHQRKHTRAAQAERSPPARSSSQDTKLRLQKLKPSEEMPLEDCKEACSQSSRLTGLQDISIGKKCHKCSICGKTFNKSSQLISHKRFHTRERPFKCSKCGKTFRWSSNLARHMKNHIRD
# UniProt Q9BS31: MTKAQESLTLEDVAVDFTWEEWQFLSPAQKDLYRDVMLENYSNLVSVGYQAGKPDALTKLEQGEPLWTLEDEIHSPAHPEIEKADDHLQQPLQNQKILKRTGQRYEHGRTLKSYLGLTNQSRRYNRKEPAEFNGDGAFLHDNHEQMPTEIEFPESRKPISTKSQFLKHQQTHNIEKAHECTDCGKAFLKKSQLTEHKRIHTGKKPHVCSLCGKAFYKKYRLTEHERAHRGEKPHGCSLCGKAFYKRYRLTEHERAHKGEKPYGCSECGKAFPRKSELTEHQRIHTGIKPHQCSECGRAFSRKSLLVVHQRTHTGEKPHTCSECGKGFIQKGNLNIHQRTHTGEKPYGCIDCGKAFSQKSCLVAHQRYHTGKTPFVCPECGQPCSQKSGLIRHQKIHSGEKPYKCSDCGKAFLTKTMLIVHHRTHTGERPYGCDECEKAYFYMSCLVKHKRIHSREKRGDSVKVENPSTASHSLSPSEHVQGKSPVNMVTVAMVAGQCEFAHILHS
# UniProt Q03938: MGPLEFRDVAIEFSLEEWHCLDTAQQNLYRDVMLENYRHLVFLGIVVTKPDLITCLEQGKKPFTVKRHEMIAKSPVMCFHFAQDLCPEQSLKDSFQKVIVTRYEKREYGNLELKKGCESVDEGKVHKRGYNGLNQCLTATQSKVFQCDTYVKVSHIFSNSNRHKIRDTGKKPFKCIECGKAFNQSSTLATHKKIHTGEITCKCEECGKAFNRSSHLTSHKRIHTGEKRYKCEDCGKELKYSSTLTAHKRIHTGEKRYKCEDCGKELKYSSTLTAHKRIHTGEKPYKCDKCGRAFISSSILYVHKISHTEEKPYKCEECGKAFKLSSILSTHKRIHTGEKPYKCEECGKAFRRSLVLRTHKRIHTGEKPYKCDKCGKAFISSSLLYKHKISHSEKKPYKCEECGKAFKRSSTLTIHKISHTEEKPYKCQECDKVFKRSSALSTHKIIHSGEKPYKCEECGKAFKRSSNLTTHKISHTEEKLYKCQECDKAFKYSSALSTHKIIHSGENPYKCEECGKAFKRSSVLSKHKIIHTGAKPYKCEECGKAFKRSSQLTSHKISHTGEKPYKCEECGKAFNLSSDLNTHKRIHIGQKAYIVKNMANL
# UniProt Q14592: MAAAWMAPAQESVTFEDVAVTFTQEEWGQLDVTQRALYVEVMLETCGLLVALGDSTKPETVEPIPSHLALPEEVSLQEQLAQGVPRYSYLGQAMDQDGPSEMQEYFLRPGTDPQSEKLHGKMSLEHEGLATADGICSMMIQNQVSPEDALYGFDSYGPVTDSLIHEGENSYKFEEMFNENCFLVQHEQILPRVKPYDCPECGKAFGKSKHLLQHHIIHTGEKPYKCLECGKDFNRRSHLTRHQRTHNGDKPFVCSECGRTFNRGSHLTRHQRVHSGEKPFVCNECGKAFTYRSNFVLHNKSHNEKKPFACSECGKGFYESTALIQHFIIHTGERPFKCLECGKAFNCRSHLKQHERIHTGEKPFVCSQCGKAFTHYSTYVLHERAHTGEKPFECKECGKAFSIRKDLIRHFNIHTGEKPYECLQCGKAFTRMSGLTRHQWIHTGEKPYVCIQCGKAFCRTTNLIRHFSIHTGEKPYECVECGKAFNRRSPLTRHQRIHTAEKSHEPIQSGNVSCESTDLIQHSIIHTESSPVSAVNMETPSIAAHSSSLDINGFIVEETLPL
# UniProt Q96H40: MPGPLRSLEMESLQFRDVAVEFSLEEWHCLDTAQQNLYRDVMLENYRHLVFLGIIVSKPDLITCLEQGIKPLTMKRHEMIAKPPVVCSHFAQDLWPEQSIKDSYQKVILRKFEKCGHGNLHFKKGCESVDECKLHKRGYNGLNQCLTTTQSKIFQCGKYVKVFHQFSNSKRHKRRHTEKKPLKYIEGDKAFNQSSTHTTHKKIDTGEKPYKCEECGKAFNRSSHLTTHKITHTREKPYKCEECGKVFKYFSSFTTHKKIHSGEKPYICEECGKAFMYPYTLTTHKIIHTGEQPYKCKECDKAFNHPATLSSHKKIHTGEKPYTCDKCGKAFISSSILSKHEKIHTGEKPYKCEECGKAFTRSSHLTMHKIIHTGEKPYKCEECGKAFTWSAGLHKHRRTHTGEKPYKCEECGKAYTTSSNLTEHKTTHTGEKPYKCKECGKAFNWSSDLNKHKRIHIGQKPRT
# UniProt P83916: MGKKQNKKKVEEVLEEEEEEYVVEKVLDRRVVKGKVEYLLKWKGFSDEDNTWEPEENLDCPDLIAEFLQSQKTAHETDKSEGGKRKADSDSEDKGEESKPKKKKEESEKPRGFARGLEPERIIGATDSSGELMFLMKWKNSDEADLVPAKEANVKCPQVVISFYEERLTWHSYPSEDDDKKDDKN
# UniProt Q8NE65: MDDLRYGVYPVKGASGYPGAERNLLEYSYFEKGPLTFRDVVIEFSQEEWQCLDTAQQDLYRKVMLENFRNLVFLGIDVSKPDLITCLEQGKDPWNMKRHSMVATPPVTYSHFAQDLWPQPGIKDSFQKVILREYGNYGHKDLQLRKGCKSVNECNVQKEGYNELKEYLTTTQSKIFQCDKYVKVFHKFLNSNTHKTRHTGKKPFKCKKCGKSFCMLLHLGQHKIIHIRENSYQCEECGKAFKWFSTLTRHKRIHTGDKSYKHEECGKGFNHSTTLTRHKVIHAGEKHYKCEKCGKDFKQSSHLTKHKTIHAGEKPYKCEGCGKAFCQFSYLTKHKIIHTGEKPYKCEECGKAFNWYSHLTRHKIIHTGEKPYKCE
# UniProt Q9H8G1: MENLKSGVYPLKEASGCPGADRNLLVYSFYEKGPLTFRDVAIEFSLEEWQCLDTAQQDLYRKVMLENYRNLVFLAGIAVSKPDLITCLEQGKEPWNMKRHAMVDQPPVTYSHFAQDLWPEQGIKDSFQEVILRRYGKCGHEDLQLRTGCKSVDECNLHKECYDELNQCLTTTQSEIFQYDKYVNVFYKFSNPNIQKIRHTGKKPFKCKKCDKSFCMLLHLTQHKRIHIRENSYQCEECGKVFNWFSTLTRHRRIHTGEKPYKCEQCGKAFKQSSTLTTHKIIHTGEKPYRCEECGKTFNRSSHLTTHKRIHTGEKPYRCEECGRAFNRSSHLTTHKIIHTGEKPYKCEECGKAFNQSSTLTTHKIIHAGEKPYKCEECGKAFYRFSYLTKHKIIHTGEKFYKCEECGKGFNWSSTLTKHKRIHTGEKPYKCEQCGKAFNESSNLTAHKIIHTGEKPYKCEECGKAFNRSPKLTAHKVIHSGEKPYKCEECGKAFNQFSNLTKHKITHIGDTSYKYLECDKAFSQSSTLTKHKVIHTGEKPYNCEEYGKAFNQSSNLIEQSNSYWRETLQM
# UniProt Q8NCK3: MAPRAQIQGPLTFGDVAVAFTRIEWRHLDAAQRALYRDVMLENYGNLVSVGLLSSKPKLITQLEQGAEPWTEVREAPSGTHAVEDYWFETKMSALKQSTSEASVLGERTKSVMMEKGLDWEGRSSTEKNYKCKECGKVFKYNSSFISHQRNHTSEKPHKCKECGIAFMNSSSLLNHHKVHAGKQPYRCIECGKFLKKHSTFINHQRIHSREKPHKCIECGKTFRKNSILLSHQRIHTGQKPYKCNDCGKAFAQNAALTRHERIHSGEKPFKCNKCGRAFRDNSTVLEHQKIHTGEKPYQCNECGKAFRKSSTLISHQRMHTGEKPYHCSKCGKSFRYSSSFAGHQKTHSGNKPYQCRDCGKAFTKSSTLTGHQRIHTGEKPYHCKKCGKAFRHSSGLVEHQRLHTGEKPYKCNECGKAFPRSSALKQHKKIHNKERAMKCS
# UniProt P11940: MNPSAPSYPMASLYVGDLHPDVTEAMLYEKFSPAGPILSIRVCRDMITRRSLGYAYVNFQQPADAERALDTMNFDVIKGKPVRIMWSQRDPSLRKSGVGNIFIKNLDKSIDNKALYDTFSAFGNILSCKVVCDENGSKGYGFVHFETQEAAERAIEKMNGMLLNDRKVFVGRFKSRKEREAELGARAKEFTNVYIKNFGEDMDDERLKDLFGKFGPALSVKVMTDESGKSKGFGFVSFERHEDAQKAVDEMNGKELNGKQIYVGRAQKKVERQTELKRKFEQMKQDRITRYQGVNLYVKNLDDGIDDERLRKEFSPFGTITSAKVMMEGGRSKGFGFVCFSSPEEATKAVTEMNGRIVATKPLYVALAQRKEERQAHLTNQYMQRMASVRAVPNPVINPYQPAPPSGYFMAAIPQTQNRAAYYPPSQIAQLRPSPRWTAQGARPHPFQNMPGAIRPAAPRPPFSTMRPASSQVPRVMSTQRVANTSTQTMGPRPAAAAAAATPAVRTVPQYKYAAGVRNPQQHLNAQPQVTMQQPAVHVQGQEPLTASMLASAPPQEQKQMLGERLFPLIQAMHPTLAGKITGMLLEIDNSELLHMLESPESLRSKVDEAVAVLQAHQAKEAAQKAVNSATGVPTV
# UniProt O14628: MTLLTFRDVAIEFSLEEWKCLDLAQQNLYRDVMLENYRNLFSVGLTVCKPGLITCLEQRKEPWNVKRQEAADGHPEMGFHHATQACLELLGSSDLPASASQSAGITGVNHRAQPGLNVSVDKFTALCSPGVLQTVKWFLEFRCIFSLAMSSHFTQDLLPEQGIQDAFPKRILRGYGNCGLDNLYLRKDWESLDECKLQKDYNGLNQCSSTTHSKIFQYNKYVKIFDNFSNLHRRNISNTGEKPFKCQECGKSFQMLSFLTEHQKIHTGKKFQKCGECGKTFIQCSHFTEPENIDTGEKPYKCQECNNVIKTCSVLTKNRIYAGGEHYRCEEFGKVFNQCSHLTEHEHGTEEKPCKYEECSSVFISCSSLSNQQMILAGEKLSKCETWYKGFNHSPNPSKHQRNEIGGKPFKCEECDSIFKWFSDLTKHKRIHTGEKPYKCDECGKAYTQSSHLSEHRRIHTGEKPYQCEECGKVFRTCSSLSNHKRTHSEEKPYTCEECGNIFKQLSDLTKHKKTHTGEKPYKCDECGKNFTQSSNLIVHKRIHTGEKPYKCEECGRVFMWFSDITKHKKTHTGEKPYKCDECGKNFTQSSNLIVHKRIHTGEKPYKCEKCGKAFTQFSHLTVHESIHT
# UniProt Q969W8: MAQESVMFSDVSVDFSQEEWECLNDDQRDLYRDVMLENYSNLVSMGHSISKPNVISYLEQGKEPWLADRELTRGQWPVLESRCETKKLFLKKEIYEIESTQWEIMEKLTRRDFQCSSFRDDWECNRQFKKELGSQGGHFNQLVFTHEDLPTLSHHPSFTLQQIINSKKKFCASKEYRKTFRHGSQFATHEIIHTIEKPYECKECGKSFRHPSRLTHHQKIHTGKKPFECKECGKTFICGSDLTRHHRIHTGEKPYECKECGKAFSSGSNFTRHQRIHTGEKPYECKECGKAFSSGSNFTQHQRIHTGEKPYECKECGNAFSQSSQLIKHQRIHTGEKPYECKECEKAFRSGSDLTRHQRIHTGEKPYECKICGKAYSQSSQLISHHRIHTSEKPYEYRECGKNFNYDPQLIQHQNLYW
# Columns and labels:
# [1] = target: T1, TRIM28-K304Q (endogenous, knock-in K562 clone Q1) (human (endogenous in K562)) (UniProt Q13263); assay: affinity purification with mass spectrometry; IP of endogenous TRIM28 or TRIM28-K304Q from K562 cells with anti-TRIM28-N-conjugated protein A beads; washed, eluted with the antibody-generating peptide; MS (LTQ-Orbitrap Velos, Mascot)
# T1 sequence: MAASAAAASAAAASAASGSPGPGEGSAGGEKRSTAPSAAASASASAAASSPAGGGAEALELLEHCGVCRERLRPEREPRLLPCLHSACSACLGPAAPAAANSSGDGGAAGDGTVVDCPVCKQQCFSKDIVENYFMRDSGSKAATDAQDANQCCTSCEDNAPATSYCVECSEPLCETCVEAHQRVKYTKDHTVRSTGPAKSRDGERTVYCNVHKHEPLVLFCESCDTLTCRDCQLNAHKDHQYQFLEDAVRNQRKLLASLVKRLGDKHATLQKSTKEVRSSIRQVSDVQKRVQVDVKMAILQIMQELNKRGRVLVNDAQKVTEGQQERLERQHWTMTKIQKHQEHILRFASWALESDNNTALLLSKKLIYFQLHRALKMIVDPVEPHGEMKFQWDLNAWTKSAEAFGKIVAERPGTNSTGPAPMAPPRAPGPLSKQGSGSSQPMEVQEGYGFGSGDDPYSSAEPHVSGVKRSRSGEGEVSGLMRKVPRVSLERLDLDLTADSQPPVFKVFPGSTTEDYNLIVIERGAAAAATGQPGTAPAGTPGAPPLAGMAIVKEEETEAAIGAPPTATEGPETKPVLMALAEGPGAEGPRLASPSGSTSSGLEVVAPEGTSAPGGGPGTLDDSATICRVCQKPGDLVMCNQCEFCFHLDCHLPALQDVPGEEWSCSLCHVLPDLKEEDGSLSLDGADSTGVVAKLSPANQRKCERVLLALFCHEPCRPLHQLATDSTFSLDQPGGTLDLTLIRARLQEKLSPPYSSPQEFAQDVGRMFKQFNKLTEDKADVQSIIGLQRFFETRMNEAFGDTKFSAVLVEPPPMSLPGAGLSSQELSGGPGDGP
# [2] = target: wild-type TRIM28 (endogenous, K562 cells) (human (endogenous in K562)) (UniProt Q13263); assay: as above
Substance,binding [1],binding [2]
ZNF689 (from UniProt Q96CS4 1-500),binds,binds
ZNF627 (from UniProt Q7L945 1-461),binds,binds
ZNF445 (from UniProt P59923 1-1031),binds,binds
ZNF432 (from UniProt O94892 1-652),binds,binds
ZNF160 (from UniProt Q9HCG1 1-818),binds,binds
ZNF561 (from UniProt Q8N587 1-486),binds,binds
ZNF649 (from UniProt Q9BS31 1-505),binds,binds
ZNF680 (from UniProt Q8NEM1 1-530),binds,binds
ZNF595 (from UniProt Q8IYB9 1-648),binds,binds
ZNF90 (from UniProt Q03938 1-601),binds,binds
ZNF460 (from UniProt Q14592 1-562),binds,binds
ZNF486 (from UniProt Q96H40 1-463),binds,binds
CBX1 (from UniProt P83916 1-185),binds,binds
ZNF562 (from UniProt Q6V9R5 1-426),binds,binds
ZNF77 (from UniProt Q15935 1-545),binds,binds
ZNF808 (from UniProt Q8N4W9 1-903),binds,binds
ZNF738 (from UniProt Q8NE65 1-375),binds,binds
ZNF430 (from UniProt Q9H8G1 1-570),binds,binds
RBAK (from UniProt Q9NYW8 1-714),binds,binds
ZNF670 (from UniProt Q9BS34 1-389),binds,binds
ZNF724 (from UniProt A8MTY0 1-619),binds,binds

Substance,binding [1],binding [2]
ZNF267 (from UniProt Q14586 1-743),binds,binds
ZNF91 (from UniProt Q05481 1-1191),binds,binds
ZNF124 (from UniProt Q15973 1-351),binds,binds
ZNF100 (from UniProt Q8IYN0 1-542),binds,binds
ZNF823 (from UniProt P16415 1-610),binds,binds
ZNF485 (from UniProt Q8NCK3 1-441),binds,binds
ZNF587 (from UniProt Q96SQ5 1-575),binds,binds
ZNF324A (from UniProt O75467 1-553),binds,binds
ZNF816 (from UniProt Q0VGE8 1-651),binds,binds
ZNF253 (from UniProt O75346 1-499),binds,binds
ZNF669 (from UniProt Q96BR6 1-464),binds,binds
ZNF34 (from UniProt Q8IZ26 1-560),binds,binds
ZNF792 (from UniProt Q3KQV3 1-632),binds,binds
ZNF8 (from UniProt P17098 1-575),binds,binds
PABP1 (from UniProt P11940 1-636),binds,binds
ZNF195 (from UniProt O14628 1-629),binds,binds
ZNF354A (from UniProt O60765 1-605),binds,binds
ZNF566 (from UniProt Q969W8 1-418),binds,binds
CENPV (centromere protein V) (from UniProt Q7Z7K6 1-275),binds,binds
ZNF74 (from UniProt Q16587 1-644),binds,binds

# Reference: PMC10298087
